These are yes or no findings as the source states them, for the method shown. Binding seen in cells or lysates may run through a third protein. A yes stands for co-enrichment or nearness to the bait. Other partners may have been found.
Biological target: CPNE7 (copine7) (human) (UniProt Q9UBL6)
Assay: affinity purification with mass spectrometry; IP from SW480 cell lysate (RIPA buffer with PMSF), 2 ug antibody overnight at 4°C, Protein A/G beads; SDS-PAGE, silver staining, differential bands analysed by mass spectrometry

Protein sequences, listed by entry. Tags and fused reporters are not part of them.
UniProt Q9UBL6: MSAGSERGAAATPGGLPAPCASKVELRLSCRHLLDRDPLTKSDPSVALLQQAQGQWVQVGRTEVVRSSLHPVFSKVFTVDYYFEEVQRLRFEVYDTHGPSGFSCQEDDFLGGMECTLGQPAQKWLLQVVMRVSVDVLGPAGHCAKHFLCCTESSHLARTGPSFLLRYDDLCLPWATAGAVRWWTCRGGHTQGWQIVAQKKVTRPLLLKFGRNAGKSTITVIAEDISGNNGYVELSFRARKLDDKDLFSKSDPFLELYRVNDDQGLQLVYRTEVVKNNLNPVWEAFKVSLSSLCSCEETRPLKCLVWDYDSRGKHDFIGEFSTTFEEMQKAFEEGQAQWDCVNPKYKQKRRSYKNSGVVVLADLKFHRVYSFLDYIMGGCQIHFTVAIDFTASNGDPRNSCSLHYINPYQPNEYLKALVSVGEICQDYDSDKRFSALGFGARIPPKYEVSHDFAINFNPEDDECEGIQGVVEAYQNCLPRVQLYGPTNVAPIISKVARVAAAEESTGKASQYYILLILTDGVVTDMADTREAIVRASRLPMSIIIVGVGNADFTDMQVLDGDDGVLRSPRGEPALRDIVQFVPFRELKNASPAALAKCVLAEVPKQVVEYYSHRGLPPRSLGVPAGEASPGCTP

B1: NONO (p54/nrb) (protein, UniProt Q15233 1-471)
chain: MQSNKTFNLEKQNHTPRKHHQHHHQQQHHQQQQQQPPPPPIPANGQQASSQNEGLTIDLKNFRKPGEKTFTQRSRLFVGNLPPDITEEEMRKLFEKYGKAGEVFIHKDKGFGFIRLETRTLAEIAKVELDNMPLRGKQLRVRFACHSASLTVRNLPQYVSNELLEEAFSVFGQVERAVVIVDDRGRPSGKGIVEFSGKPAARKALDRCSEGSFLLTTFPRPVTVEPMDQLDDEEGLPEKLVIKNQQFHKEREQPPRFAQPGSFEYEYAMRWKALIEMEKQQQDQVDRNIKEAREKLEMEMEAARHEHQVMLMRQDLMRRQEELRRMEELHNQEVQKRKQLELRQEEERRRREEEMRRQQEEMMRRQQEGFKGTFPDAREQEIRMGQMAMGGAMGINNRGAMPPAPVPAGTPAPPGPATMMPDGTLGLTPPTTERFGQAATMEGIGAIGGTPPAFNRAAPGAEFAPNKRRRY
binding: binds

Reference: article PMC11655532
